Experimental data from PubChem BioAssay AID330 (DTP/NCI, 2004).
The list shows only some results of the screen, not a fair sample: it gathers tests that were run many times, whatever their T/C, doses with no T/C, and many T/C values between a quarter and a half above the control. Further doses and runs are listed elsewhere. T/C: endpoint of the treated group in % of that of the vehicle group. Some entries give survivors of the animals treated and no T/C: the source files T/C as zero there, which appears to mark a toxic dose or a test without result, not a measured value. Some doses without a T/C left all or most animals alive at the check, yet need not have been tolerated: the source hardly ever lists a survival T/C far under the control, and the zero likely stands for such cases as well. Survivors were counted at the toxicity check, usually on the fifth day, unless a day is given; later deaths do not show. Schedules are NCI's codes, taken here to give the interval after Q, in days (D) or hours (H), and the number of doses after X. Some doses were run more than once; the values are given in rising order. Where survival is the endpoint, this PubChem deposit counts one and a half times the control or more as active, and values a quarter to a half above the control carry no call in these data; other NCI protocols may use other cut-offs.

System: P388 leukemia ip, CD2F1 mice, survival T/C
Experiment: NCI In Vivo Anticancer Drug Screen. Data for tumor model P388 Leukemia (intraperitoneal) in CD2F1 (CDF1) mice
Conditions: T/C endpoint: median survival time, higher T/C = longer survival
[1] = dose: 10.0 mg/kg/injection, schedule: Q01DX009 (ip), vehicle: saline with Tween-80
[2] = dose: 3.12 mg/kg/injection, schedule: Q01DX009 (ip), vehicle: Klucel (hydroxypropylcellulose) (HPC)
[3] = dose: 6.25 mg/kg/injection, schedule: Q01DX009 (ip), vehicle: Klucel (hydroxypropylcellulose) (HPC)
[4] = dose: 200.0 mg/kg/injection, schedule: Q01DX009 (ip), vehicle: Klucel (hydroxypropylcellulose) (HPC)
[5] = dose: 200.0 mg/kg/injection, schedule: Q01DX009 (ip), vehicle: saline with Tween-80

SMILES: CCCCOC(=O)N(CCCl)N=O
- survivor count [1]: 5 of 6
- survivor count (dose: 20.0 mg/kg/injection, schedule: Q01DX009 (ip), vehicle: saline with Tween-80): 4 of 6

SMILES: [F][Sn]([F])([c]1ccccc1)[c]1ccccc1
- T/C (dose: 0.78 mg/kg/injection, schedule: Q01DX009 (ip), vehicle: Klucel (hydroxypropylcellulose) (HPC)): 149 % of control
- T/C [2]: 144 % of control
- survivor count [2]: 0 of 6
- T/C [3]: 144 % of control
- survivor count [3]: 0 of 6
- survivor count (dose: 12.5 mg/kg/injection, schedule: Q01DX009 (ip), vehicle: Klucel (hydroxypropylcellulose) (HPC)): 1 of 6
- survivor count (dose: 25.0 mg/kg/injection, schedule: Q01DX009 (ip), vehicle: Klucel (hydroxypropylcellulose) (HPC)): 6 of 6
- survivor count (dose: 50.0 mg/kg/injection, schedule: Q01DX009 (ip), vehicle: Klucel (hydroxypropylcellulose) (HPC)): 0 of 6
- survivor count (dose: 100.0 mg/kg/injection, schedule: Q01DX009 (ip), vehicle: Klucel (hydroxypropylcellulose) (HPC)): 1 of 6
- survivor count [4]: 0 of 6

SMILES: CN1C2=NCCN2C(=O)c2cc(Cl)ccc21
- survivor count [4]: 0 of 6

SMILES: COC(=O)Nn1cc(C(C(C)=O)C(C)=O)c(C(C)=O)c1C
- survivor count (dose: 200.0 mg/kg/injection, schedule: Q01DX005 (ip), vehicle: Klucel (hydroxypropylcellulose) (HPC)): 3 of 6

SMILES: Nc1cc(N)cc(Cc2ccccc2)c1
- survivor count [5]: 1 of 6
- survivor count (dose: 400.0 mg/kg/injection, schedule: Q01DX009 (ip), vehicle: saline with Tween-80): 1 of 6

SMILES: CCCC(O)/C=C/C=C/C=C/C#CC#CCCCO (configuration not stated)
- T/C (dose: 0.5 mg/kg/injection, schedule: Q01DX005 (ip), vehicle: DMSO): 125 % of control

SMILES: O=C1c2cscc2C(=O)c2c(Cl)sc(Cl)c21
- survivor count (dose: 50.0 mg/kg/injection, schedule: Q01DX009 (ip), vehicle: saline with Tween-80): 6 of 6
- survivor count (dose: 100.0 mg/kg/injection, schedule: Q01DX009 (ip), vehicle: saline with Tween-80): 3 of 6
- survivor count [5]: 1 of 6

SMILES: CCCCCCCCCCCC[N+]1(CC)CCOCC1
- survivor count (dose: 50.0 mg/kg/injection, schedule: Q01DX009 (ip), vehicle: saline): 1 of 6
- survivor count (dose: 100.0 mg/kg/injection, schedule: Q01DX009 (ip), vehicle: saline): 1 of 6
- survivor count (dose: 200.0 mg/kg/injection, schedule: Q01DX009 (ip), vehicle: saline): 0 of 6

SMILES: CC(C)(C)[Si](C)(C)OC(=O)Nc1ccc(N(CCCl)CCCl)cc1
- T/C (dose: 5.0 mg/kg/injection, schedule: Q04DX003 (ip), vehicle: distilled water + Tween-80): 138 % of control
- T/C (dose: 20.0 mg/kg/injection, schedule: Q04DX003 (ip), vehicle: distilled water + Tween-80): 139 % of control
- survivor count (dose: 40.0 mg/kg/injection, schedule: Q04DX003 (ip), vehicle: distilled water + Tween-80): 5 of 6 and 6 of 6
- survivor count (dose: 80.0 mg/kg/injection, schedule: Q04DX003 (ip), vehicle: distilled water + Tween-80): 2 of 6 and 4 of 6

SMILES: COC(=O)C(C)NC(=O)c1c2nc3c(C(=O)NC(C)C(=O)OC)ccc(C)c3oc-2c(C)c(=O)c1N (configuration not stated)
- survivor count (dose: 12.5 mg/kg/injection, schedule: Q01DX005 (ip), vehicle: distilled water + Tween-80): 6 of 6
- survivor count (dose: 25.0 mg/kg/injection, schedule: Q01DX005 (ip), vehicle: saline with Tween-80): 6 of 6
- survivor count (dose: 50.0 mg/kg/injection, schedule: Q01DX005 (ip), vehicle: saline with Tween-80): 6 of 6
- survivor count (dose: 100.0 mg/kg/injection, schedule: Q01DX005 (ip), vehicle: distilled water + Tween-80): 6 of 6

SMILES: CC(C)CC(NC(=O)CF)C(=O)O (configuration not stated)
- survivor count [1]: 0 of 6
